The record followed here is BindingDB's records for PubMed 11546835 (Mcgill University, 2001).

Amino acid sequences for entries named in this document (tags omitted). A change or cut given only in a name is not applied to a line headed by its entry.
UniProt P35377: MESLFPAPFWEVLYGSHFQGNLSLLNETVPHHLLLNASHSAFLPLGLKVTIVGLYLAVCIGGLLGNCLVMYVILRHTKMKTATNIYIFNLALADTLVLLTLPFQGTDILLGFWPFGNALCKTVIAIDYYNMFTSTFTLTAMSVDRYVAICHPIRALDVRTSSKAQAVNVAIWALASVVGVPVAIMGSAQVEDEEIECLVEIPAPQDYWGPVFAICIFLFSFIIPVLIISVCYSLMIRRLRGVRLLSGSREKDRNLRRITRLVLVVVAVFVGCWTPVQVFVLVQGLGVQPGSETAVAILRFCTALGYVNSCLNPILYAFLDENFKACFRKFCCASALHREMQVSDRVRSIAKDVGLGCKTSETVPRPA

For the test, the target named is Nociceptin receptor (Mus musculus, UniProt P35377).

pKi: −log10 of the molar value.

The pKi is the Ki on a negative log10 scale, so that one unit is a factor of ten. Low readings indicate a high Ki, high ones a low Ki. For the compound `CN1CC[C@]23c4c5ccc(O)c4O[C@H]2[C@@H](O)C=C[C@H]3[C@H]1C5` [CAS_23552-18-3], the pKi was 6.00.
